Paper PMC9050680
These are yes or no findings as the source states them, for the method shown. In cells and extracts the contact can be indirect. Some results given as binding are weak or reduced against the parent protein; the word gives no strength.

Sequences of proteins named here, by UniProt entry; tags and fusion partners are left off.
UniProt P54845: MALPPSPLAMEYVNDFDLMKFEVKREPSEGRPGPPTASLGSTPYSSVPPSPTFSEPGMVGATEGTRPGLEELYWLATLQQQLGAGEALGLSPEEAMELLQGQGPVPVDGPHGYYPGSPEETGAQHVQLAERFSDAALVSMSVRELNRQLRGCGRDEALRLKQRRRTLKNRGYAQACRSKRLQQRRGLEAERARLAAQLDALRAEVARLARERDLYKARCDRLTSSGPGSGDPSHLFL
UniProt O43186: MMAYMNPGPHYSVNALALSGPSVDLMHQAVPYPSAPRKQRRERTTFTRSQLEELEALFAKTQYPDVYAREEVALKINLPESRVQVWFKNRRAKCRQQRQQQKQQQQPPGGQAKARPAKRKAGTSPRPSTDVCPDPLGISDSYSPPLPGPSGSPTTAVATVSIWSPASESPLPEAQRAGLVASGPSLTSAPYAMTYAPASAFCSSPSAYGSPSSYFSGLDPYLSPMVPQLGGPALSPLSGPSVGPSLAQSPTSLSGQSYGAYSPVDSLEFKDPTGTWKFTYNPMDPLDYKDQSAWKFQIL

Legend:
[1] = molecular target: human NRL with mCherry or EGFP fused to the N-terminus (near the activation domain) (human) (UniProt P54845); experiment: FRET or BRET; CM-FRET: confocal microscopy, sensitized emission, live transiently transfected HEK293T cells at 37 °C, 5% CO2; donor EGFP, acceptor mCherry; compared with mCh + eG
[2] = molecular target: human NRL with mCherry or EGFP fused to the N-terminus (near the activation domain) (human) (UniProt P54845); experiment: FRET or BRET; CM-FRET: confocal microscopy, acceptor photobleaching (APB) on HEK293T cells fixed with 2% paraformaldehyde; donor EGFP, acceptor mCherry; compared with mCh + eG
[3] = molecular target: human NRL with mCherry or EGFP fused to the N-terminus (near the activation domain) (human) (UniProt P54845); experiment: FRET or BRET; FC-FRET: flow cytometry, sensitized emission (three-cube N_FRET, apparent FRET efficiency) in live transiently cotransfected HEK293T cells suspended in PBS; donor EGFP, acceptor mCherry; population means and dependence on expression level compared with unlinked mCh + eG

Measured: binding

human CRX with mCherry or EGFP fused to the N-terminus (near the homeodomain) (from UniProt O43186 1-299)
binds: all assays above
